Assay results taken from the supplement of paper PMC10849652.
Some of the results follow.

Amino acid sequences for entries named in this document (tags omitted). A change or cut given only in a name is not applied to a line headed by its entry.
UniProt Q9Y276: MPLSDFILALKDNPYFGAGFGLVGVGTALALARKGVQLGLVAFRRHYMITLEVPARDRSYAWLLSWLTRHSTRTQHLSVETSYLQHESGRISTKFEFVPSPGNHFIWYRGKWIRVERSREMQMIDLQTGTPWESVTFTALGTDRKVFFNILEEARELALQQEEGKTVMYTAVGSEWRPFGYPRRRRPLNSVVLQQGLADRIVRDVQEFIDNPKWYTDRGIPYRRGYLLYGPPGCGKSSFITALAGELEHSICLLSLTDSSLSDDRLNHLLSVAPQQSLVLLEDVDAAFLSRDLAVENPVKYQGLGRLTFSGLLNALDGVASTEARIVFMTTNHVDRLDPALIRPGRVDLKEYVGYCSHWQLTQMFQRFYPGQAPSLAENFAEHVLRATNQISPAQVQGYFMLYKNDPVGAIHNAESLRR
UniProt Q99933: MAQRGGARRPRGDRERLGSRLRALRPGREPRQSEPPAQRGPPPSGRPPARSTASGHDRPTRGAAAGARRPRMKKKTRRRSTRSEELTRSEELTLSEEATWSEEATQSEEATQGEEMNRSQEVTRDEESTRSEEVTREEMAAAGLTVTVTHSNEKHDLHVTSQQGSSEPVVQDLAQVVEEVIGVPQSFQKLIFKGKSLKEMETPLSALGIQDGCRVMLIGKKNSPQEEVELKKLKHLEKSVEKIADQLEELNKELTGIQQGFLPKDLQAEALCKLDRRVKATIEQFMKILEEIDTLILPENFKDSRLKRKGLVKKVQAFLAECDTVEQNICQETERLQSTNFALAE
UniProt Q5VW32: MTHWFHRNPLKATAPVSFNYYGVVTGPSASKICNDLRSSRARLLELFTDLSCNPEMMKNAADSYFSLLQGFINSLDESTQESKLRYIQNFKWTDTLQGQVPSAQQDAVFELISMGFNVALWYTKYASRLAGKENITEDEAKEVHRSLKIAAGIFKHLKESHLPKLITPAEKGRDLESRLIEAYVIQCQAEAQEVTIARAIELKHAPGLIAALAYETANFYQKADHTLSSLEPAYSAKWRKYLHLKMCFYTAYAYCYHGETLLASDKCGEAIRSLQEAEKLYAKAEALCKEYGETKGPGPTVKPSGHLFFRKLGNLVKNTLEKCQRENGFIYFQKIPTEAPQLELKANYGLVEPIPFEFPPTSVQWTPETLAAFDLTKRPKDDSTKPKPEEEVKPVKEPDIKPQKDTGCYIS
UniProt Q9NR09, whole entry, looked up: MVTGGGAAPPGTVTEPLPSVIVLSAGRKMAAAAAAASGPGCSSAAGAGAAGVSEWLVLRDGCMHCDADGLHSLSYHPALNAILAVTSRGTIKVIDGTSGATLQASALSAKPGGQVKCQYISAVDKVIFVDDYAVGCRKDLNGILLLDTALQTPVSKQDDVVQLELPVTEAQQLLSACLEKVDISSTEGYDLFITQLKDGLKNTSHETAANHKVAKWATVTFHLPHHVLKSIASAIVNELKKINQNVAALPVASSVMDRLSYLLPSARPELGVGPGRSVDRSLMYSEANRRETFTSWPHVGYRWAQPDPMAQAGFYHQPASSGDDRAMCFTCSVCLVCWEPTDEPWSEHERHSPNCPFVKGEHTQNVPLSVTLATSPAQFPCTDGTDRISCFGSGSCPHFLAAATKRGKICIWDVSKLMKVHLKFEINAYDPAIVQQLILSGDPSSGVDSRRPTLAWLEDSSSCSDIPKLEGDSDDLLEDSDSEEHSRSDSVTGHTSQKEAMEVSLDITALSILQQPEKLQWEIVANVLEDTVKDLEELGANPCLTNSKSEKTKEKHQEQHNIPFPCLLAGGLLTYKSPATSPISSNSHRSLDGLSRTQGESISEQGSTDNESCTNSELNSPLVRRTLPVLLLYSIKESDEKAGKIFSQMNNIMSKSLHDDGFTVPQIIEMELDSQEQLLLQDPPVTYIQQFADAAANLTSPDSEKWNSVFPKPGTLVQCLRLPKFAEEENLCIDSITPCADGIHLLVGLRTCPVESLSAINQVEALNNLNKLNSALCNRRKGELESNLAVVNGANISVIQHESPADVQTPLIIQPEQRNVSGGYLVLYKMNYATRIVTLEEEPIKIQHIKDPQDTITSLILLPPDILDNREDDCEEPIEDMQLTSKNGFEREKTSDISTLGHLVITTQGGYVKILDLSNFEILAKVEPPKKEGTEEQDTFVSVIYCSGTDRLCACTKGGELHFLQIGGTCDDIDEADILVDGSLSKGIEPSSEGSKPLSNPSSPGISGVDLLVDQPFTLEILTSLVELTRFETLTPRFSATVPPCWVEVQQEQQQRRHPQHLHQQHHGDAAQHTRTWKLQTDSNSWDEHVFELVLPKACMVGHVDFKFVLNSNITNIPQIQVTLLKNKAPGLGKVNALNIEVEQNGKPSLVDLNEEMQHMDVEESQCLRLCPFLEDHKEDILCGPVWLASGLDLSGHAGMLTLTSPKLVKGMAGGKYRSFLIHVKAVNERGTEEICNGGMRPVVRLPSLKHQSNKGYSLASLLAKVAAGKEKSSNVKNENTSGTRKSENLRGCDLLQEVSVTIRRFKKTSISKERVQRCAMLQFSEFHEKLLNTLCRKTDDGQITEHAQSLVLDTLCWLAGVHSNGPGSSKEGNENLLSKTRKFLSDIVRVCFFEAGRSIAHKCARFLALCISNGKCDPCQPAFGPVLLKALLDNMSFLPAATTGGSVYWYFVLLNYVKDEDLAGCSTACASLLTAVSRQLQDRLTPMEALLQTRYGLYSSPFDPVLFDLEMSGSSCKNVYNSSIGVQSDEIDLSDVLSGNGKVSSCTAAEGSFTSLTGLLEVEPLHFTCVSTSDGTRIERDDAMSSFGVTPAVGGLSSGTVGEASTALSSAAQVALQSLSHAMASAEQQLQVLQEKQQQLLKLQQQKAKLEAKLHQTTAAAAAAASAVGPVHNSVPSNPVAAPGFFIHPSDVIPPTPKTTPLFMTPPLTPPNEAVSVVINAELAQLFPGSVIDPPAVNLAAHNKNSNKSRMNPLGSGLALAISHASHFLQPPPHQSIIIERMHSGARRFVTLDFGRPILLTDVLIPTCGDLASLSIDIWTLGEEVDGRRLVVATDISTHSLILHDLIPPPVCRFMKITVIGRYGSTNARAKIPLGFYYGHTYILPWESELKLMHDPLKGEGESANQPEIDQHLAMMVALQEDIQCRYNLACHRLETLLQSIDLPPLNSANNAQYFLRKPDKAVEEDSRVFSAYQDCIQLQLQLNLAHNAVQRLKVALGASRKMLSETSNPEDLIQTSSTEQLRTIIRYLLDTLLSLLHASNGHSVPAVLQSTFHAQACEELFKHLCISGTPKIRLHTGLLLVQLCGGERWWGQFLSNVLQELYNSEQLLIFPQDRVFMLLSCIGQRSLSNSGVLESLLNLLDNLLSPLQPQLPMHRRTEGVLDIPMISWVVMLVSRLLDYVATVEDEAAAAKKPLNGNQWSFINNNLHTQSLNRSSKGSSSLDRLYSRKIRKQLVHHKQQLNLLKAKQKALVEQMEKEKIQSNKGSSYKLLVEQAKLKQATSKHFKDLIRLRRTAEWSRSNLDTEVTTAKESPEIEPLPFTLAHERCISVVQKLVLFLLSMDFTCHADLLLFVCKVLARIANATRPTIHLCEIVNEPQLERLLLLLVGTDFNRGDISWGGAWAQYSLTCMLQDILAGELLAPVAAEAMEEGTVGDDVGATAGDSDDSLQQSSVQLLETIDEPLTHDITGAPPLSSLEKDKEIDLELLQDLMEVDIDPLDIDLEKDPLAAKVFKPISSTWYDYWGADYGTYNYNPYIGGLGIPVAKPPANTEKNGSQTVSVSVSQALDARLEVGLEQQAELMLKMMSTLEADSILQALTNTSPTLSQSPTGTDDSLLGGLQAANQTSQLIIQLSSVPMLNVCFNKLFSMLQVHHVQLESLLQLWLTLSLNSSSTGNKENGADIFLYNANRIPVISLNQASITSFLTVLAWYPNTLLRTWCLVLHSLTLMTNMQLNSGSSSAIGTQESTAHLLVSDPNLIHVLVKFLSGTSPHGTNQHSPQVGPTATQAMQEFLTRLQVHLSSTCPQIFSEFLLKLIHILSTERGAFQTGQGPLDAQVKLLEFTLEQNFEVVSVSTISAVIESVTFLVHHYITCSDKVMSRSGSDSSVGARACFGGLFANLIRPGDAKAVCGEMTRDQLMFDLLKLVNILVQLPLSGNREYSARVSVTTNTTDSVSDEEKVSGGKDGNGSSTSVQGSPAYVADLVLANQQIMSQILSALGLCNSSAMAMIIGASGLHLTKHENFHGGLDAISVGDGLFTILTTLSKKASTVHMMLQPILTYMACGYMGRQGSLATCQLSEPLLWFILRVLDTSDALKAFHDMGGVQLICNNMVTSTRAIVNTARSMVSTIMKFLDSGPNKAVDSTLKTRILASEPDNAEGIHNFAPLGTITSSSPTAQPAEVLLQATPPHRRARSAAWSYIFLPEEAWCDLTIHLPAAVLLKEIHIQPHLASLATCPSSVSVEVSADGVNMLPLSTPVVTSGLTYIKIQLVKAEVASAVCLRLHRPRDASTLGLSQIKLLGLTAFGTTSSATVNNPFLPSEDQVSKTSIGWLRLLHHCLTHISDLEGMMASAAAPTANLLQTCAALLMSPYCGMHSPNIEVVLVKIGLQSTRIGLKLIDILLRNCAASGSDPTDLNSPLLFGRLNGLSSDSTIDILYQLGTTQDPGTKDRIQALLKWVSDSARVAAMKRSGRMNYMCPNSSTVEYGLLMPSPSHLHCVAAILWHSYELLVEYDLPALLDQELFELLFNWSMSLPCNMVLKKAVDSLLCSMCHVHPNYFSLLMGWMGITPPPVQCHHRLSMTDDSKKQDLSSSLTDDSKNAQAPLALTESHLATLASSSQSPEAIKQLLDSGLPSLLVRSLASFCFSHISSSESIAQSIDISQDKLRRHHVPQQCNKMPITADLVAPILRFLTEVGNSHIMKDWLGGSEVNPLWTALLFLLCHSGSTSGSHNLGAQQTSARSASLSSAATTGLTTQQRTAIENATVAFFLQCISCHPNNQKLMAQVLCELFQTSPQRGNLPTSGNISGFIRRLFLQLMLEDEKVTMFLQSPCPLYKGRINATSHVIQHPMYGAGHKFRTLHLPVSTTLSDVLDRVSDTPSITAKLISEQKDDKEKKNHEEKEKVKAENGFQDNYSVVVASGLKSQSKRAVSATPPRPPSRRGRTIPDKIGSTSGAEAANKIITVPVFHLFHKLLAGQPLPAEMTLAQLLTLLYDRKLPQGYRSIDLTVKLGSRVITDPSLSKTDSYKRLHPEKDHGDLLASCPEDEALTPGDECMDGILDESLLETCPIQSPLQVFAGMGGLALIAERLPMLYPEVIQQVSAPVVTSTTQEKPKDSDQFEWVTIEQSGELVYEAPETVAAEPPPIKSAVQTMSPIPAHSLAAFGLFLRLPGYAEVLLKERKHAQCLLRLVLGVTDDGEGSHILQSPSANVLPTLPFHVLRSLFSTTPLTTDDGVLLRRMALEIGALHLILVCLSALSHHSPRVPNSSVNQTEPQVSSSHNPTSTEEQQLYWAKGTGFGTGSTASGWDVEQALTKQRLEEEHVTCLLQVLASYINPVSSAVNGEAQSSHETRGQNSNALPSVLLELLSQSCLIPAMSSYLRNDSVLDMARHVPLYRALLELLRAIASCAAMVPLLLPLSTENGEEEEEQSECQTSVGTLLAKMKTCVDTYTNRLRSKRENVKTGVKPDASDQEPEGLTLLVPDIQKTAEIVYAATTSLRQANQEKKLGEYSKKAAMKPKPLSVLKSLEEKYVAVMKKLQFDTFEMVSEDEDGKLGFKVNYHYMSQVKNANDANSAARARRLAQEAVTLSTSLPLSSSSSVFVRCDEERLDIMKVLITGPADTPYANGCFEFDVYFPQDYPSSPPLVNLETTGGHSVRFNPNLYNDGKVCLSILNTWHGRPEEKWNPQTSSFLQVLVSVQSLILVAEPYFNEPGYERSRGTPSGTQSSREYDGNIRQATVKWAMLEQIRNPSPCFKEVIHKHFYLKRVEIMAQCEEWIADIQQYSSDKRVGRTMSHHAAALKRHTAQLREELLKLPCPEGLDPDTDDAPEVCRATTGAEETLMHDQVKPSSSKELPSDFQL
UniProt P53004: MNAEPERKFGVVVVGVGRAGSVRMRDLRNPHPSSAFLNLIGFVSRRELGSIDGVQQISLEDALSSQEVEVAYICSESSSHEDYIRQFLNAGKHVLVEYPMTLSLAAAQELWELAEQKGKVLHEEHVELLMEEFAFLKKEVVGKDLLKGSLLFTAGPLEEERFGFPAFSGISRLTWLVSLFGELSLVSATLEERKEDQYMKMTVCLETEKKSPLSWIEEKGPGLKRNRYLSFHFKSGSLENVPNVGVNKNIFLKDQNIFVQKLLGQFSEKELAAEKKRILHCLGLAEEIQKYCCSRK
UniProt Q07812, whole entry, looked up: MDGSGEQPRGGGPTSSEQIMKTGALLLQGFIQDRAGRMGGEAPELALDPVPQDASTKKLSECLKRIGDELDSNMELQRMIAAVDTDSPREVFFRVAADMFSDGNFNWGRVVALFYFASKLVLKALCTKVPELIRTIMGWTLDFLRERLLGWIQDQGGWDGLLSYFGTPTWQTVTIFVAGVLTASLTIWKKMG

Key:
Assay in all cases: log2 fold change, soluble protein after heating vs DMSO (PISA); higher = thermal stabilisation; K562 cells, 10 uM, 30 min; active = over 0.2 and 3.5 SD of the protein, either way, in both replicates (recomputed)
[1] = compound: CS(=O)(=O)c1ccc(-c2cnc(N)c(C(=O)Nc3ccccc3)n2)cc1
Outline: (§1)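 Soluble protein was defined as the supernatant after 21,000xg for 90 min. It came from K562 cells at 2×10^6 cells/mL given 10 μM compound for 30 min, heated in aliquots for 3 min across 48°C-58°C, pooled, and extracted in PBS with 0.5% NP-40 at 4°C, and was quantified by TMTpro 16plex LC-MS/MS with equalised channel sums. Thermal stability against control samples, from duplicates, is reported as log2 fold change.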

[2] = compound: C[C@@H](Oc1cc(-c2cnn(C3CCNCC3)c2)cnc1N)c1c(Cl)ccc(F)c1Cl [crizotinib]
Outline: as §1

[3] = compound: C[C@@H]1COCCN1C2=NC(=NC(=C2)C3(CC3)S(=O)(=O)C)C4=C5C=CNC5=CC=C4
Outline: as §1

[4] = compound: C[C@H](C1=CC=C(C=C1)C(=O)NC2=C3C=CNC3=NC=C2)N
Outline: as §1

[5] = compound: C[C@H](Nc1ncnc2nc[nH]c12)c1cc2cccc(Cl)c2c(=O)n1-c1ccccc1 [duvelisib]
Outline: as §1

[6] = compound: Cc1cc(Nc2cc(CN3CCOCC3)c3nc(C)c(Cc4ccc(Cl)cc4F)n3n2)n[nH]1 [gandotinib]
Outline: as §1

[7] = compound: Cc1cc(Nc2cc(N3CCN(C)CC3)nc(Sc3ccc(NC(=O)C4CC4)cc3)n2)n[nH]1 [tozasertib]
Outline: as §1

[8] = compound: Cc1cc(SCc2sc(-c3ccc(C(F)(F)F)cc3)nc2C)ccc1OCC(=O)O
Outline: as §1

[9] = compound: Cc1ccc(-n2nc(C(C)(C)C)cc2NC(=O)Nc2ccc(OCCN3CCOCC3)c3ccccc23)cc1 [doramapimod]
Outline: as §1

[10] = compound: Cc1ccc(C(=O)N(CCCN)[C@@H](c2nc3cc(Cl)ccc3c(=O)n2Cc2ccccc2)C(C)C)cc1 [ispinesib]
Outline: as §1

Measured: log2 fold change

BET1 (UniProt O15155)
inactive: [1] 0.043 | [2] -0.02 | [3] 0.132 | [4] -0.025 | [5] 0.058 | [6] -0.13 | [7] 0.019 | [8] 0.026 | [9] 0.043 | [10] -0.005

BCKDHB (UniProt P21953)
inactive: [1] -0.025 | [2] 0.012 | [3] -0.051 | [4] -0.024 | [5] 0.048 | [6] 0.063 | [7] 0.057 | [8] -0.025 | [9] -0.048 | [10] -0.12

B3GNTL1 (UniProt Q67FW5)
inactive: [1] 0.021 | [2] 0.024 | [3] 0.262 | [4] 0.01 | [5] 0.057 | [6] -0.145 | [7] -0.129 | [8] -0.036 | [9] 0.078 | [10] -0.118

BAG6 isoform 3 (UniProt P46379)
inactive: [1] 0.016 | [2] -0.02 | [3] -0.037 | [4] 0.002 | [5] -0.011 | [6] -0.077 | [7] 0.106 | [8] 0.047 | [9] 0.016 | [10] 0.003

BCS1L (UniProt Q9Y276)
inactive: [1] 0.042 | [2] 0.078 | [3] 0.044 | [4] -0.025 | [5] 0.03 | [6] 0.037 | [7] -0.031 | [8] -0.012 | [9] -0.005 | [10] 0.034

ATXN10 (UniProt Q9UBB4)
inactive: [1] 0.014 | [2] -0.022 | [3] 0.061 | [4] -0.063 | [5] -0.006 | [6] -0.023 | [7] -0.004 | [8] 0.005 | [9] -0.074 | [10] 0.078

BCAR1 isoform 6 (UniProt P56945)
inactive: [1] 0.031 | [2] -0.104 | [3] -0.054 | [4] 0.08 | [5] 0.019 | [6] -0.081 | [7] 0.053 | [8] -0.022 | [9] 0.038 | [10] -0.033

BPIFB1 (UniProt Q8TDL5)
inactive: [1] -0.045

BOLA3 (UniProt Q53S33)
inactive: [1] 0.059 | [2] 0.066 | [3] 0.047 | [4] -0.054 | [5] 0.04 | [6] 0.029 | [7] -0.023 | [8] -0.022 | [9] -0.022 | [10] 0.007

BAG1 (UniProt Q99933)
inactive: [1] 0 | [2] -0.009 | [3] 0.048 | [4] -0.001 | [5] 0.088 | [6] 0.035 | [7] -0.026 | [8] -0.01 | [9] 0.037 | [10] -0.002

BCL2L1 (UniProt Q07817)
inactive: [1] -0.027 | [2] 0.041 | [3] 0.014 | [4] -0.047 | [5] 0.011 | [6] 0.043 | [7] -0.032 | [8] 0 | [9] 0.014 | [10] 0.13

BROX (UniProt Q5VW32)
inactive: [1] -0.005 | [2] 0.075 | [3] 0.045 | [4] -0.021 | [5] 0.087 | [6] 0.02 | [7] 0.066 | [8] 0.087 | [9] -0.068 | [10] 0.077

BIRC6 (UniProt Q9NR09)
inactive: [1] 0.035 | [2] -0.06 | [3] -0.021 | [4] 0.092 | [5] -0.019 | [6] -0.022 | [7] 0.032 | [8] 0.03 | [9] 0.063 | [10] -0.022

BRD8 (UniProt Q9H0E9)
inactive: [1] 0 | [2] -0.021 | [3] 0.018 | [4] 0.06 | [6] -0.013 | [8] -0.054 | [9] 0.023 | [10] -0.022

B3GNT5 (UniProt Q9BYG0)
inactive: [1] 0.031 | [2] -0.029 | [3] 0.133 | [4] -0.28 | [5] -0.048 | [8] -0.115 | [9] -0.038

BCAT1 (UniProt P54687)
inactive: [1] -0.005 | [2] 0.019 | [3] 0.02 | [4] -0.019 | [5] 0.034 | [6] -0.013 | [7] -0.024 | [8] -0.007 | [9] -0.028 | [10] 0.006

BAG5 isoform 2 (UniProt Q9UL15)
inactive: [1] 0.032 | [2] -0.036 | [3] -0.018 | [4] -0.046 | [6] -0.07 | [7] 0.055 | [9] 0.015 | [10] -0.06

ATRN (UniProt O75882)
inactive: [1] -0.049 | [2] 0.01 | [3] 0.116 | [4] 0.087 | [6] -0.002 | [8] 0.071 | [9] -0.238

BAG4 (UniProt O95429)
inactive: [1] 0.056 | [2] -0.01 | [3] 0.103 | [4] -0.105 | [5] 0.058 | [6] -0.056 | [7] 0 | [8] 0.027 | [9] 0 | [10] -0.007

BCR (UniProt P11274)
inactive: [1] 0.115 | [2] 0.005 | [3] -0.075 | [4] 0.399 | [5] -0.205 | [6] 0 | [7] -0.062 | [8] 0.084 | [9] 0.227 | [10] -0.287

BRCC3 (UniProt P46736)
inactive: [1] -0.026 | [2] 0.059 | [3] 0.116 | [4] 0.044 | [5] 0.026 | [6] 0.022 | [7] -0.022 | [8] -0.087 | [9] 0.003 | [10] 0.041

BAG3 (UniProt O95817)
inactive: [1] 0.033 | [2] -0.013 | [3] 0.007 | [4] 0.019 | [5] 0.048 | [6] 0.093 | [7] -0.021 | [8] -0.05 | [9] -0.028 | [10] 0

BOD1L1 (UniProt Q8NFC6)
inactive: [1] -0.005 | [2] 0 | [3] -0.07 | [4] 0.028 | [5] -0.02 | [6] 0.046 | [7] -0.009 | [8] -0.034 | [9] 0.061 | [10] -0.041

BCKDHA (UniProt P12694)
inactive: [1] 0.039 | [2] -0.13 | [3] 0.066 | [4] 0.04 | [5] 0.022 | [6] 0.019 | [7] 0.003 | [8] 0.028 | [9] 0.031 | [10] -0.056

BIRC2 (UniProt Q13490)
inactive: [1] 0.037 | [2] 0.033 | [3] 0.056 | [4] -0.02 | [5] 0.046 | [6] 0.111 | [7] -0.049 | [8] 0.013 | [9] -0.021 | [10] -0.053

BABAM2 (UniProt Q9NXR7)
inactive: [1] 0.018 | [2] 0.003 | [3] 0.011 | [4] -0.049 | [5] -0.018 | [6] 0.106 | [7] -0.036 | [8] -0.044 | [9] -0.021 | [10] 0.015

BRAT1 (UniProt Q6PJG6)
inactive: [1] 0.043 | [2] -0.047 | [3] 0.02 | [4] -0.103 | [5] 0.029 | [6] 0.013 | [7] 0.024 | [8] 0.082 | [9] -0.002 | [10] -0.046

BLVRA (UniProt P53004)
inactive: [1] 0.038 | [2] -0.171 | [3] 0.102 | [4] -0.034 | [5] 0.086 | [6] -0.147 | [7] -0.079 | [8] 0.003 | [9] 0.018 | [10] -0.041

ATXN2 (UniProt Q99700)
inactive: [1] 0.008 | [2] -0.006 | [3] -0.06 | [4] 0.029 | [5] -0.026 | [6] -0.013 | [7] -0.053 | [8] -0.046 | [9] 0.009 | [10] -0.053

BCOR (UniProt Q6W2J9)
inactive: [1] 0.324 | [2] 0.063 | [3] 0.012 | [4] 0.384 | [5] 0.223 | [7] -0.137 | [8] -0.045 | [9] -0.076

BICD1 (UniProt Q96G01)
inactive: [1] -0.061 | [2] 0.076 | [3] -0.138 | [4] -0.01 | [5] 0.137 | [6] 0.105 | [7] 0.116 | [8] 0.059 | [9] 0.055 | [10] -0.213

BAX isoform 2 (UniProt Q07812)
inactive: [1] -0.018 | [2] 0.017 | [3] -0.021 | [4] -0.022 | [5] 0.071 | [6] 0.064 | [7] 0.022 | [8] -0.025 | [9] 0.016 | [10] 0.064

Six consecutive entries from above, for reference:
BCKDHA (UniProt P12694)
inactive: [1] 0.039 | [2] -0.13 | [3] 0.066 | [4] 0.04 | [5] 0.022 | [6] 0.019 | [7] 0.003 | [8] 0.028 | [9] 0.031 | [10] -0.056

BIRC2 (UniProt Q13490)
inactive: [1] 0.037 | [2] 0.033 | [3] 0.056 | [4] -0.02 | [5] 0.046 | [6] 0.111 | [7] -0.049 | [8] 0.013 | [9] -0.021 | [10] -0.053

BABAM2 (UniProt Q9NXR7)
inactive: [1] 0.018 | [2] 0.003 | [3] 0.011 | [4] -0.049 | [5] -0.018 | [6] 0.106 | [7] -0.036 | [8] -0.044 | [9] -0.021 | [10] 0.015

BRAT1 (UniProt Q6PJG6)
inactive: [1] 0.043 | [2] -0.047 | [3] 0.02 | [4] -0.103 | [5] 0.029 | [6] 0.013 | [7] 0.024 | [8] 0.082 | [9] -0.002 | [10] -0.046

BLVRA (UniProt P53004)
inactive: [1] 0.038 | [2] -0.171 | [3] 0.102 | [4] -0.034 | [5] 0.086 | [6] -0.147 | [7] -0.079 | [8] 0.003 | [9] 0.018 | [10] -0.041

ATXN2 (UniProt Q99700)
inactive: [1] 0.008 | [2] -0.006 | [3] -0.06 | [4] 0.029 | [5] -0.026 | [6] -0.013 | [7] -0.053 | [8] -0.046 | [9] 0.009 | [10] -0.053
